Earlier results, collected in US20140120106A1, “Stimulation of Arterial Collateral Growth and Lymphogenesis” (YALE UNIVERSITY, priority 2011, published 2014).
At least one structure is not confirmed: it was looked up by name or label, or the drawing left a doubt.

Test system: zebra fish mutated in the gridlock gene
Conditions: gridlock mutant zebra fish, partial inhibition of PI3-kinase; cited from earlier work

Row | SMILES | ERK activation | distal arterial circulation
1 | O=c1cc(N2CCOCC2)oc2c(-c3ccccc3)cccc12 [LY294002] | recovery | virtually complete rescue
2 | COC[C@H]1OC(=O)c2coc3c2[C@@]1(C)C1=C(C3=O)[C@@H]2CCC(=O)[C@@]2(C)C[C@H]1OC(C)=O [wortmannin] | recovery | virtually complete rescue
